Experiments:
[1] = general procedure: Fmoc solid-phase peptide synthesis; 2-chlorotrityl; HATU/DIPEA; bromoacetic acid/diisopropylcarbodiimide (sub-monomer); details: whole synthesis, on initial Fmoc-sarcosine loading
[2] = general procedure: Fmoc solid-phase peptide synthesis; Rink amide; HATU/DIPEA; bromoacetic acid/diisopropylcarbodiimide (sub-monomer); details: whole synthesis, on initial Fmoc-sarcosine loading

Substance	isolated yield [1]	isolated yield [2]
NH2-Gly(N3)-PSAR10- COOH	14%	
NH2-Gly-(N3)-PSAR10- CONH2		48%

— patent US20260232826A1 (Mablink Bioscience, priority 2022, published 2026)
